The comparison behind a weaker result is the experiment's own reference, which may not be listed here. For some of these results: For at least one entry, the source does not settle the construct or the ends of the probe. For some of these results: At least one verdict was read from the data and is not stated in words by the source.
Columns and labels:
[1] = biological target: LARP4A RRM1 (Homo sapiens) (UniProt Q71RC2); test: EMSA; conditions: similar affinity to La module; EMSA: 20 mM Tris pH 7.25, 200 mM KCl, 5% glycerol, 1 mM DTT, 0.1 mg/ml BSA, 0.01 mg/ml E. coli tRNA, on ice, gel at 4 C; recombinant protein; residues 196-287; protein details: His tag, TEV-cleaved; label: 5' 32P (EMSA), unlabelled (NMR, native MS)
[2] = biological target: LARP4A 50-287 (Homo sapiens) (UniProt Q71RC2); test: EMSA; conditions: with competitor tRNA; EMSA: 20 mM Tris pH 7.25, 200 mM KCl, 5% glycerol, 1 mM DTT, 0.1 mg/ml BSA, 0.01 mg/ml E. coli tRNA, on ice, gel at 4 C; recombinant protein; residues 50-287; protein details: His tag, TEV-cleaved; label: 5' 32P (EMSA), unlabelled (NMR, native MS)
[3] = biological target: LARP4A La module (Homo sapiens) (UniProt Q71RC2); test: EMSA; conditions: EMSA: 20 mM Tris pH 7.25, 200 mM KCl, 5% glycerol, 1 mM DTT, 0.1 mg/ml BSA, 0.01 mg/ml E. coli tRNA, on ice, gel at 4 C, recombinant protein, residues 111-287, protein details: His tag, TEV-cleaved, label: 5' 32P (EMSA), unlabelled (NMR, native MS)
[4] = biological target: LARP4A La module C130YM160F (Homo sapiens) (UniProt Q71RC2); test: EMSA; conditions: no tighter than wild-type La module; EMSA: 20 mM Tris pH 7.25, 200 mM KCl, 5% glycerol, 1 mM DTT, 0.1 mg/ml BSA, 0.01 mg/ml E. coli tRNA, on ice, gel at 4 C; recombinant protein; residues 111-287; label: 5' 32P (EMSA), unlabelled (NMR, native MS)
[5] = biological target: LARP4A NTD W22F (Homo sapiens) (UniProt Q71RC2); test: EMSA; conditions: low affinity, Kd only in figure; EMSA: 20 mM Tris pH 7.25, 200 mM KCl, 5% glycerol, 1 mM DTT, 0.1 mg/ml BSA, 0.01 mg/ml E. coli tRNA, on ice, gel at 4 C; recombinant protein; residues 1-287; protein details: His tag, TEV-cleaved; label: 5' 32P (EMSA), unlabelled (NMR, native MS)
[6] = biological target: LARP4A 24-287 (Homo sapiens) (UniProt Q71RC2); test: EMSA; conditions: with competitor tRNA; EMSA: 20 mM Tris pH 7.25, 200 mM KCl, 5% glycerol, 1 mM DTT, 0.1 mg/ml BSA, 0.01 mg/ml E. coli tRNA, on ice, gel at 4 C; recombinant protein; residues 24-287; protein details: His tag, TEV-cleaved; label: 5' 32P (EMSA), unlabelled (NMR, native MS)
[7] = biological target: LARP4A 95-287 (Homo sapiens) (UniProt Q71RC2); test: EMSA; conditions: with competitor tRNA; EMSA: 20 mM Tris pH 7.25, 200 mM KCl, 5% glycerol, 1 mM DTT, 0.1 mg/ml BSA, 0.01 mg/ml E. coli tRNA, on ice, gel at 4 C; recombinant protein; residues 95-287; protein details: His tag, TEV-cleaved; label: 5' 32P (EMSA), unlabelled (NMR, native MS)
[8] = biological target: LARP4A 79-287 (Homo sapiens) (UniProt Q71RC2); test: EMSA; conditions: with competitor tRNA; EMSA: 20 mM Tris pH 7.25, 200 mM KCl, 5% glycerol, 1 mM DTT, 0.1 mg/ml BSA, 0.01 mg/ml E. coli tRNA, on ice, gel at 4 C; recombinant protein; residues 79-287; protein details: His tag, TEV-cleaved; label: 5' 32P (EMSA), unlabelled (NMR, native MS)
[9] = biological target: LARP4A NTD L15AW22A (Homo sapiens) (UniProt Q71RC2); test: EMSA; conditions: severely impaired, Kd only in figure; EMSA: 20 mM Tris pH 7.25, 200 mM KCl, 5% glycerol, 1 mM DTT, 0.1 mg/ml BSA, 0.01 mg/ml E. coli tRNA, on ice, gel at 4 C; recombinant protein; residues 1-287; protein details: His tag, TEV-cleaved; label: 5' 32P (EMSA), unlabelled (NMR, native MS)
[10] = biological target: LARP4A NTD L15A (Homo sapiens) (UniProt Q71RC2); test: EMSA; conditions: FAM-oligoA20; EMSA: 20 mM Tris pH 7.25, 200 mM KCl, 5% glycerol, 1 mM DTT, 0.1 mg/ml BSA, 0.01 mg/ml E. coli tRNA, on ice, gel at 4 C; recombinant protein; residues 1-287; protein details: His tag, TEV-cleaved; label: 5' fluorescein (FAM)
[11] = biological target: LARP4A NTD W22A (Homo sapiens) (UniProt Q71RC2); test: EMSA; conditions: FAM-oligoA20; EMSA: 20 mM Tris pH 7.25, 200 mM KCl, 5% glycerol, 1 mM DTT, 0.1 mg/ml BSA, 0.01 mg/ml E. coli tRNA, on ice, gel at 4 C; recombinant protein; residues 1-287; protein details: His tag, TEV-cleaved; label: 5' fluorescein (FAM)
[12] = biological target: LARP4A La module (Homo sapiens) (UniProt Q71RC2); test: MST; conditions: 25 C, agrees with EMSA, Kd only in figure; MST: 20 mM Tris pH 7.25, 100 mM KCl, 0.2 mM EDTA, 1 mM DTT, 0.05% Tween-20, 25 C; recombinant protein; residues 111-287; protein details: His tag, TEV-cleaved; label: 5' fluorescein (FAM)

Protein sequences, listed by entry. Tags and fused reporters are not part of them. Chains listed by the source or under a name are the forms on record and can include a tag or linker. Residues count along the entry.
UniProt Q71RC2, 196-287: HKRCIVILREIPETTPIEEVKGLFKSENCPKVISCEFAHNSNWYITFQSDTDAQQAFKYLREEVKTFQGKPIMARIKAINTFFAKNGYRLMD
UniProt Q71RC2, 50-287: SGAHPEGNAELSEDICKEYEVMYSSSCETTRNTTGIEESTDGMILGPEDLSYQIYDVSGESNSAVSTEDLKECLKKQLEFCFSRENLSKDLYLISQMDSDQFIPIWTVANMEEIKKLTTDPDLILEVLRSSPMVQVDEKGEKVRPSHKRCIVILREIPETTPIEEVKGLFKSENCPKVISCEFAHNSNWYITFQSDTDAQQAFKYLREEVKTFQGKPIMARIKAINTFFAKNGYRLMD
UniProt Q71RC2, 111-287: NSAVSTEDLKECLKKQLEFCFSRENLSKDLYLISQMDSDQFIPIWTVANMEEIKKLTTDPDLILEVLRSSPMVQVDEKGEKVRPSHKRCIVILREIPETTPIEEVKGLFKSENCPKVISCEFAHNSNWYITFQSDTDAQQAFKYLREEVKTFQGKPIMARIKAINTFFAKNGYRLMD
UniProt Q71RC2, other isoform, or with tags, fused parts or gaps, stated change not applied: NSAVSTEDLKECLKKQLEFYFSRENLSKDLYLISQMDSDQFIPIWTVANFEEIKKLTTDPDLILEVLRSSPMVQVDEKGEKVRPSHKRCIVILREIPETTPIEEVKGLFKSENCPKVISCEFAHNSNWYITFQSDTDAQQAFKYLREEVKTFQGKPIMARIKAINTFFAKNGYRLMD
UniProt Q71RC2, 1-287 W22F: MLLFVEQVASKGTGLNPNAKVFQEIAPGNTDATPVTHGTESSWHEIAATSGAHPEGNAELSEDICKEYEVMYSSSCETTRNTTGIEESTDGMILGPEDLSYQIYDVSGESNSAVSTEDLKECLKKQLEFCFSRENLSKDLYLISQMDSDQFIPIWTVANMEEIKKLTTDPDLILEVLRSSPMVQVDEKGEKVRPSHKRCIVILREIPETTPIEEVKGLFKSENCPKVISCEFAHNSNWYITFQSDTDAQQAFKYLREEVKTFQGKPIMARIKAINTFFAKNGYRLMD
UniProt Q71RC2, 24-287: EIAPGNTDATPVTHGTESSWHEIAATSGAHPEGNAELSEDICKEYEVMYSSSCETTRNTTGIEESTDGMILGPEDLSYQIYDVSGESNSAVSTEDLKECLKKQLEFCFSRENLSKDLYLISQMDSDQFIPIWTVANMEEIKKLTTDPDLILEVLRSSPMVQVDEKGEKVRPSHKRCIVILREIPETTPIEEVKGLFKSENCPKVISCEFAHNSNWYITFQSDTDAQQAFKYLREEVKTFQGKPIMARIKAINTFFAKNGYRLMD
UniProt Q71RC2, 95-287: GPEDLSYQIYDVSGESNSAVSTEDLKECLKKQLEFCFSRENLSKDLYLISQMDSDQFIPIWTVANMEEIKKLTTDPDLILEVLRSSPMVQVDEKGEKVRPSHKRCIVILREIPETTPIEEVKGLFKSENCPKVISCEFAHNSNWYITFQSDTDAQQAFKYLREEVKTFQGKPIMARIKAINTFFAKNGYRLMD
UniProt Q71RC2, 79-287: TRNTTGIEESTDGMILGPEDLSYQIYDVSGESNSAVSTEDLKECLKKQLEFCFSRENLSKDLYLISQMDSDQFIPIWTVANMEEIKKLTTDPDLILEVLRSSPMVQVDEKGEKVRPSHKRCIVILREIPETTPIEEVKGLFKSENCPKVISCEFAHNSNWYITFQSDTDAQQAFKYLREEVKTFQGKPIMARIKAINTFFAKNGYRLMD
UniProt Q71RC2, other isoform, or with tags, fused parts or gaps: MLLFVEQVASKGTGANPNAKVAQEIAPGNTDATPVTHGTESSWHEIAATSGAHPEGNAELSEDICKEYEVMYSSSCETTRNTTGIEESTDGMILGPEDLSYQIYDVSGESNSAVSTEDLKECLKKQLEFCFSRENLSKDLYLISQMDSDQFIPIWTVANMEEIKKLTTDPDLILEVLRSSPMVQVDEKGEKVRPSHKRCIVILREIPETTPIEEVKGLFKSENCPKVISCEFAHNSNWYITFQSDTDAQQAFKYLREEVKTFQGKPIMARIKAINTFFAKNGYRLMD
UniProt Q71RC2, 1-287 L15A: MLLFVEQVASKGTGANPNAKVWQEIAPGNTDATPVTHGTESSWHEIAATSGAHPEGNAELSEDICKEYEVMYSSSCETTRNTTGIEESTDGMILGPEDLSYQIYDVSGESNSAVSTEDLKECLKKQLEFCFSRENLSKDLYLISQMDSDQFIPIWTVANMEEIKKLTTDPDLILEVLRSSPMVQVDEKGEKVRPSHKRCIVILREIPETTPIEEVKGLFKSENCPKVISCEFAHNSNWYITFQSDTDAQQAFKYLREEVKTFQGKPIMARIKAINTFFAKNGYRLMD
UniProt Q71RC2, 1-287 W22A: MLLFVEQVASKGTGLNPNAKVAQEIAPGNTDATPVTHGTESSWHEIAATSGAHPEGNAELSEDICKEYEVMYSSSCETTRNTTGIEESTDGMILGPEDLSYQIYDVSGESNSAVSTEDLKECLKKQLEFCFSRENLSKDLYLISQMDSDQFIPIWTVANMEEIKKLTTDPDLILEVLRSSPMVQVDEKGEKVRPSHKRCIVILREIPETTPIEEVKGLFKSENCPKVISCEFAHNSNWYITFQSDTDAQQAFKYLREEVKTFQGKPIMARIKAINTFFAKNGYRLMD

Measured: binding result

AAAAAAAAAAAAAAA [oligoA15]
binds more weakly: [1] | [2] | [3]; no competitor tRNA, too weak to quantify | [3]; with competitor tRNA | [4] | [5] | [6] | [7] | [8] | [9]

AAAAAAAAAAAAAAAAAAAA [5'FAM-oligoA20]
binds more weakly: [10] | [11] | [12]

Reference: article PMC6486636
